These are yes or no findings as the source states them, for the method shown. Binding seen in cells or lysates may run through a third protein. Some results given as binding are weak or reduced against the parent protein; the word gives no strength. Sequences can lack the tags named with a protein.
Biological target: T1, chicken MDA5 (melanoma differentiation-associated gene 5), Flag-tagged (chicken) (UniProt D9N195)
T1 sequence: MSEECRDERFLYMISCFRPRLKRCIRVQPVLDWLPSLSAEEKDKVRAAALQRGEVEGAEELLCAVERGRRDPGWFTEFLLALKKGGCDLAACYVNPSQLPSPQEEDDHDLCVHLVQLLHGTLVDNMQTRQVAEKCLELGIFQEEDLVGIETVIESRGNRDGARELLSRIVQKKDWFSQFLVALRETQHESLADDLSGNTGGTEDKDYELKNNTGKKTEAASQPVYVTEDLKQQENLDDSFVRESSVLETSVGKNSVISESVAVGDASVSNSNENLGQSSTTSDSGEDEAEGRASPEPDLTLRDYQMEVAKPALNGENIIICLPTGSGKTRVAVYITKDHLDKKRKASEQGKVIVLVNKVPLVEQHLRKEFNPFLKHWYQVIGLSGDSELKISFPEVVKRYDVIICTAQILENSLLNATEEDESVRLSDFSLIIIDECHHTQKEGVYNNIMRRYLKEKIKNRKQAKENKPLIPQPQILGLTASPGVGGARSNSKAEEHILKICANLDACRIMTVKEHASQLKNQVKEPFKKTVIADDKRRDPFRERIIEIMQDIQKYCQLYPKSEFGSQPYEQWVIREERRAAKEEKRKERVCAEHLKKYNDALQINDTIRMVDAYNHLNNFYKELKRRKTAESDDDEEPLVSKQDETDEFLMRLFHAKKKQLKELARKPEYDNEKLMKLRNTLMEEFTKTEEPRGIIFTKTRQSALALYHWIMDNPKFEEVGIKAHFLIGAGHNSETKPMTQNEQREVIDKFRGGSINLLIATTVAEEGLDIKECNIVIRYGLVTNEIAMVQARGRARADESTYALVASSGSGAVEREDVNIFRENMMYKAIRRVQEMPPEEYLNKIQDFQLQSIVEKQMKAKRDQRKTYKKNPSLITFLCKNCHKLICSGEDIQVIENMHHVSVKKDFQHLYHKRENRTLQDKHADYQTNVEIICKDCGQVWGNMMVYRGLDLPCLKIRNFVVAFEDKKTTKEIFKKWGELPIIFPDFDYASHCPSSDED
Test: co-IP; HEK293T cells co-transfected with RNF20-EGFP and MDA5-Flag (1000 ng/well, six-well plates); lysates precipitated with Flag antibodies on protein G magnetic beads, then immunoblotting; IP buffer 50 mM Tris pH 7.4, 150 mM NaCl, 1% NP-40, 0.5% sodium deoxycholate, 0.1% SDS

By UniProt entry, the sequences of proteins in these tests, tags left out.
UniProt Q5ZLS3: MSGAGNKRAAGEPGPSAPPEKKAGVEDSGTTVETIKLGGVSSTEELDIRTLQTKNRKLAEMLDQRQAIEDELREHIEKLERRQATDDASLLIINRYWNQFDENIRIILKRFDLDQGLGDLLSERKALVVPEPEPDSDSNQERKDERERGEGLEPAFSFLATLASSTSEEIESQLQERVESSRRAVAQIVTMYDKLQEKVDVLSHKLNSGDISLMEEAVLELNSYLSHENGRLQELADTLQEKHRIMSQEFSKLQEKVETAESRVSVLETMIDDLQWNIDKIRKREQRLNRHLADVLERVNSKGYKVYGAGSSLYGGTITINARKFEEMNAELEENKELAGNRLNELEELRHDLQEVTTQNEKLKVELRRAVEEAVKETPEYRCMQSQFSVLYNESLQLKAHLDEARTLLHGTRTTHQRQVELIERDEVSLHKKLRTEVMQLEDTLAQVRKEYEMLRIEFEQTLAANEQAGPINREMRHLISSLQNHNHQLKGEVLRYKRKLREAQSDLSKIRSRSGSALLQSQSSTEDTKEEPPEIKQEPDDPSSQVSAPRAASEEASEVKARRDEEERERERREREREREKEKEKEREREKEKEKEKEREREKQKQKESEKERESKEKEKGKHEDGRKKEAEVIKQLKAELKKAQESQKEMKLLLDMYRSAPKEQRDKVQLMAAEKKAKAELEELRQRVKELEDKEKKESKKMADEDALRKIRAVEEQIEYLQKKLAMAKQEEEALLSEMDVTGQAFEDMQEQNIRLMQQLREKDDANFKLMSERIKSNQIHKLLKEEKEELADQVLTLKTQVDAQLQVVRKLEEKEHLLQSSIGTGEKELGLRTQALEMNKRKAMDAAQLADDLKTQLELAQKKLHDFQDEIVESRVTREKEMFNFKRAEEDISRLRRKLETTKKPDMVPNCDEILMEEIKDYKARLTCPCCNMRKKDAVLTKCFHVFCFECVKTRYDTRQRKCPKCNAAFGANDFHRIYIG

binding: binds
Substance: chicken E3 ubiquitin ligase Ring Finger Protein 20 (RNF20), EGFP-tagged (from UniProt Q5ZLS3 1-984) (enzyme)
